The name of at least one read-out is uncertain.
Assay: Pharmacokinetic profile of a single oral dose of 800 mg PDS in subjects with varying degrees of renal impairment vs healthy volunteers
Type: in vivo, human
Conditions: single oral 800 mg; renal impairment compared to healthy subjects
Protocol: An open-label, non-randomized, parallel group study to assess the pharmacokinetic profile of a single oral dose of 800 mg 1,3-propanedisulfonic acid disodium salt (PDS) in subjects with varying degrees of renal impairment as compared to healthy volunteers is conducted. Blood and urine samples are collected for 24 hours following dosing. Plasma and urine concentrations in 1,3-propanedisulfonic acid are determined using validated HPLC methods. […] Consequently, a decrease in dose appears to be necessary to maintain an acceptable systemic exposure in patients with impaired renal function.

## O=S(=O)([O-])CCCS(=O)(=O)[O-].[Na+].[Na+] [PDS, 1,3-propanedisulfonic acid, disodium salt]
  effect of renal impairment on renal clearance and systemic exposure (AUC and Cmax): lower renal clearance and greater systemic exposure
